Laboratory results from PMC11574364.

By UniProt entry, the sequences of proteins in these tests, tags left out. Where a name states a change or a piece, a line headed by the entry shows the natural chain unless it says otherwise.
UniProt Q3YBR2: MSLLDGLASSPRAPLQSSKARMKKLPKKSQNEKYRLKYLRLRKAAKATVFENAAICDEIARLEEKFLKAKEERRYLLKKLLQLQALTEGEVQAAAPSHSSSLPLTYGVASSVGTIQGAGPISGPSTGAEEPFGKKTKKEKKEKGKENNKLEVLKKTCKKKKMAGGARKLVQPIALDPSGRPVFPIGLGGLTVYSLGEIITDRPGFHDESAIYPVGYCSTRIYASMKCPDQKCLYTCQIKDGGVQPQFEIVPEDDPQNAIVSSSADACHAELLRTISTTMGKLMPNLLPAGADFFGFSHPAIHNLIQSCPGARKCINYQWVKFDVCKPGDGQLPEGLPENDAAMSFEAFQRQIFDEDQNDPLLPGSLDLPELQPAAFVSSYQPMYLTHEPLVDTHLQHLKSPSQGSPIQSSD
UniProt Q9ULM2: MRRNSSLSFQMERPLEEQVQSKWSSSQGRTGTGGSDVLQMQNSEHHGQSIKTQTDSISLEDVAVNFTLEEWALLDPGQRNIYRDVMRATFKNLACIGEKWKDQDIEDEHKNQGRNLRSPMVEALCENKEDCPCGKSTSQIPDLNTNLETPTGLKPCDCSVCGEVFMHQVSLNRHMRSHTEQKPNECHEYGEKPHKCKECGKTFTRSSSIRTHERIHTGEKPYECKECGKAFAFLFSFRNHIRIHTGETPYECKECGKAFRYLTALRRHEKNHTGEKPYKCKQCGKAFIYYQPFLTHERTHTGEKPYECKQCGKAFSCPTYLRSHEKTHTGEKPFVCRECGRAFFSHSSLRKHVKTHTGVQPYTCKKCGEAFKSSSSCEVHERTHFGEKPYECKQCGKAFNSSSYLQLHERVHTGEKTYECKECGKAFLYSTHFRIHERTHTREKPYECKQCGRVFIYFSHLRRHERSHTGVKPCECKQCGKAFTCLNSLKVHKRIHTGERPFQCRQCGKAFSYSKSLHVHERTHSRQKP

Columns and labels:
Assay in all cases: human ORF protein microarray
DOK3 (Homo sapiens) = molecular target: T1, DOK3 (Homo sapiens) (UniProt Q7L591); conditions: 5' phosphate, Domain array: 20 mM Tris-HCl pH 7.4, 200 mM KCl, 0.2 mM EDTA, 0.05% NP40, 2 ug/ul heparin, overnight 4 C. ORF array: PBS pH 7.0 with RNase inhibitor, 100 ng RNA, 1 h., recombinant protein, protein details: N-terminal GST-6xHis
T1 sequence (looked up, limits assumed): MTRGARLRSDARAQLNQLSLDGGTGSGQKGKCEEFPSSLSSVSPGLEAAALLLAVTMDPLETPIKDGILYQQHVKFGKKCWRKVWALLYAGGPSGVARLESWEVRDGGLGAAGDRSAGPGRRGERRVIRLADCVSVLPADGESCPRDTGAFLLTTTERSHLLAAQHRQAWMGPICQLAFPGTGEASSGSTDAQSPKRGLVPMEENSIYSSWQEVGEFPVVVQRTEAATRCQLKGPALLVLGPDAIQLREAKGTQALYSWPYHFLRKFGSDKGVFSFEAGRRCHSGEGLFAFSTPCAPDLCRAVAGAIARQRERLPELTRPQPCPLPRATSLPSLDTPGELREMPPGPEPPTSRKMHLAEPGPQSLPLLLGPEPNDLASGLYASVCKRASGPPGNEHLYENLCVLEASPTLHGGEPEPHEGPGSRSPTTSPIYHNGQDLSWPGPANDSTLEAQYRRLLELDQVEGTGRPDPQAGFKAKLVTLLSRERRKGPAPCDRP

FAM127A (Homo sapiens) = conditions: 5' phosphate, Domain array: 20 mM Tris-HCl pH 7.4, 200 mM KCl, 0.2 mM EDTA, 0.05% NP40, 2 ug/ul heparin, overnight 4 C. ORF array: PBS pH 7.0 with RNase inhibitor, 100 ng RNA, 1 h., recombinant protein, protein details: N-terminal GST-6xHis
QKI (Homo sapiens) = molecular target: T2, QKI (Homo sapiens) (UniProt Q96PU8); conditions: 5' phosphate; Domain array: 20 mM Tris-HCl pH 7.4, 200 mM KCl, 0.2 mM EDTA, 0.05% NP40, 2 ug/ul heparin, overnight 4 C. ORF array: PBS pH 7.0 with RNase inhibitor, 100 ng RNA, 1 h.; recombinant protein; protein details: N-terminal GST-6xHis; label: internal DY647 at G18; letters put together from the description
T2 sequence (looked up, limits assumed): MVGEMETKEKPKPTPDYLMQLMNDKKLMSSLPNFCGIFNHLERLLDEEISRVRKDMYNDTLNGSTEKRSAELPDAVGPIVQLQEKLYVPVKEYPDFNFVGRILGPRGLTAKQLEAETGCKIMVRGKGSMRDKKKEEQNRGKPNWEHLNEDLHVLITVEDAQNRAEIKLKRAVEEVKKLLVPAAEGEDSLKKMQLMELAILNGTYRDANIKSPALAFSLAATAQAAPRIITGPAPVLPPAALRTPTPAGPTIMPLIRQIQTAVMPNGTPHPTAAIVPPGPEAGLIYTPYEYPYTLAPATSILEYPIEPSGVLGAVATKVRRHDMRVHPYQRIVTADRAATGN

TBRG1 (Homo sapiens) = TBRG1 (Homo sapiens) (UniProt Q3YBR2); conditions: 5' phosphate, Domain array: 20 mM Tris-HCl pH 7.4, 200 mM KCl, 0.2 mM EDTA, 0.05% NP40, 2 ug/ul heparin, overnight 4 C. ORF array: PBS pH 7.0 with RNase inhibitor, 100 ng RNA, 1 h., recombinant protein, protein details: N-terminal GST-6xHis
TBX5 (Homo sapiens) = molecular target: T3, TBX5 (Homo sapiens) (UniProt Q99593); conditions: 5' phosphate, Domain array: 20 mM Tris-HCl pH 7.4, 200 mM KCl, 0.2 mM EDTA, 0.05% NP40, 2 ug/ul heparin, overnight 4 C. ORF array: PBS pH 7.0 with RNase inhibitor, 100 ng RNA, 1 h., recombinant protein, protein details: N-terminal GST-6xHis
T3 sequence (looked up, limits assumed): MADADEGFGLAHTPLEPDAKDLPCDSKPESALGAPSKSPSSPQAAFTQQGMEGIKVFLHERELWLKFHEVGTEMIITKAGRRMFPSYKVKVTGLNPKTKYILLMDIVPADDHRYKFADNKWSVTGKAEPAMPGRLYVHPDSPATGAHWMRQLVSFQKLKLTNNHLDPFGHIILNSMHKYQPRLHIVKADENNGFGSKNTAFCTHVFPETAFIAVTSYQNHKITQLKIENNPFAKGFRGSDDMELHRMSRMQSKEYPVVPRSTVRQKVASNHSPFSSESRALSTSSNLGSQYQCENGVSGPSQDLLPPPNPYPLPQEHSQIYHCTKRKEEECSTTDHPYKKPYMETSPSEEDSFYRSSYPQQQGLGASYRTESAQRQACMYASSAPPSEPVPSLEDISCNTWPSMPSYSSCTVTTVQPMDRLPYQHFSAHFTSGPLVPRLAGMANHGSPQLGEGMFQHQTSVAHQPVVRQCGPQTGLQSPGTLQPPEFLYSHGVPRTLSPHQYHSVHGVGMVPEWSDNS

ZNF490 (Homo sapiens) = ZNF490 (Homo sapiens) (UniProt Q9ULM2); conditions: 5' phosphate; Domain array: 20 mM Tris-HCl pH 7.4, 200 mM KCl, 0.2 mM EDTA, 0.05% NP40, 2 ug/ul heparin, overnight 4 C. ORF array: PBS pH 7.0 with RNase inhibitor, 100 ng RNA, 1 h.; recombinant protein; protein details: N-terminal GST-6xHis; label: internal DY647 at G18; letters put together from the description
ZNF597 (Homo sapiens) = molecular target: T4, ZNF597 (Homo sapiens) (UniProt Q96LX8); conditions: 5' phosphate; Domain array: 20 mM Tris-HCl pH 7.4, 200 mM KCl, 0.2 mM EDTA, 0.05% NP40, 2 ug/ul heparin, overnight 4 C. ORF array: PBS pH 7.0 with RNase inhibitor, 100 ng RNA, 1 h.; recombinant protein; protein details: N-terminal GST-6xHis; label: internal DY647 at G18; letters put together from the description
T4 sequence (looked up, limits assumed): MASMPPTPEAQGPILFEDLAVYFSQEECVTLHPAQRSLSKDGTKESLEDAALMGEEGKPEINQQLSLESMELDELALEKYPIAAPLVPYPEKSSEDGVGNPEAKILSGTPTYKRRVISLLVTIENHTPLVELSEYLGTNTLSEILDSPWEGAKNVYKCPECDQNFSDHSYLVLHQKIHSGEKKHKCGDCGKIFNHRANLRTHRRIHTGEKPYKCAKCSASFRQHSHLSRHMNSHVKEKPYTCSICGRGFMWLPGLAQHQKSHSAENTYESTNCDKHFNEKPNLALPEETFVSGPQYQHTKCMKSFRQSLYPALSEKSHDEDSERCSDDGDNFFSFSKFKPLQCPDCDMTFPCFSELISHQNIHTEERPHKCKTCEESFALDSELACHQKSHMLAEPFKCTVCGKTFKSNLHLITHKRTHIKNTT

NARF (Homo sapiens) = molecular target: T5, NARF (Homo sapiens) (UniProt Q9UHQ1); conditions: 5' phosphate, Domain array: 20 mM Tris-HCl pH 7.4, 200 mM KCl, 0.2 mM EDTA, 0.05% NP40, 2 ug/ul heparin, overnight 4 C. ORF array: PBS pH 7.0 with RNase inhibitor, 100 ng RNA, 1 h., recombinant protein, protein details: N-terminal GST-6xHis
T5 sequence (looked up, limits assumed): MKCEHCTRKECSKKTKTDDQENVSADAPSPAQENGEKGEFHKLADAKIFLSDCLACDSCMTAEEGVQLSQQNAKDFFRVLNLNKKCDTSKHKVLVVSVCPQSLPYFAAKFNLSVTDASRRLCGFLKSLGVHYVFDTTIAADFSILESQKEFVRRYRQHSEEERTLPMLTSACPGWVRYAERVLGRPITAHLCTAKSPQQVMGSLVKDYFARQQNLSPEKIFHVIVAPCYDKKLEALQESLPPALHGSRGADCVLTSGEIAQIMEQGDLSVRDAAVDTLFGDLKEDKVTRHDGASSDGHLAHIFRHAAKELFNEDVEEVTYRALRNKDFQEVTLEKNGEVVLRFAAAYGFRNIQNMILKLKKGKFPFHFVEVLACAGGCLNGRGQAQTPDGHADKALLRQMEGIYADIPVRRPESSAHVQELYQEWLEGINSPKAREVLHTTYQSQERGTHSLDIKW

[1] = label: internal DY647 at G18, letters put together from the description
[2] = amino-C6 U at position 18, label: internal Cy5 or DY647

Measured: binding result

CAGUGCAAUGAUGAAAGGGCAU [miR-130b (internal labeling)]
binds: DOK3 (Homo sapiens); [1] | FAM127A (Homo sapiens); [1] | QKI (Homo sapiens) | TBRG1 (Homo sapiens); [1] | TBX5 (Homo sapiens); [1] | ZNF490 (Homo sapiens) | ZNF597 (Homo sapiens)

UAGCUUAUCAGACUGAUGUUGA [miR-21 (internal labeling)]
binds: NARF (Homo sapiens); [1] | QKI (Homo sapiens) | ZNF490 (Homo sapiens) | ZNF597 (Homo sapiens)

UGAGGUAGUAGGUUGUGUGGUU [let-7b (internal labeling)]
binds: DOK3 (Homo sapiens); [2] | FAM127A (Homo sapiens); [2] | NARF (Homo sapiens); [2] | TBRG1 (Homo sapiens); [2] | TBX5 (Homo sapiens); [2]

Construct, isoform or probe ends are uncertain for at least one entry. For some of these results: Where a protein sequence is shown, tags need not be part of it.
